The values that follow come from paper PMC7393984.

Chains of the proteins cited; added tags and fusions are not shown.
UniProt A0R5F3: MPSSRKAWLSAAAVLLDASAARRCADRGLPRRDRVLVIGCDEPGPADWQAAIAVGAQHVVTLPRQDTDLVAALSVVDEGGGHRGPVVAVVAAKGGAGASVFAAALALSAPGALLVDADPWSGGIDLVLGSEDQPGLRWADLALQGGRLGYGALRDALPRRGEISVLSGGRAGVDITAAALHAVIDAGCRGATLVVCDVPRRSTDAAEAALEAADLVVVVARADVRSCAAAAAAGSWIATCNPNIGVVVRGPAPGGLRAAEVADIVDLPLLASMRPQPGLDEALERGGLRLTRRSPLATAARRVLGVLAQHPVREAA

This experiment deals with MSMEG_6171, yeast two-hybrid fusion (pGBKT7:MSMEG_6171) (Mycobacterium smegmatis) (UniProt A0R5F3). The experiment in a line: two-hybrid; GAL4-based Matchmaker Gold Yeast Two-Hybrid system; MSMEG_6171 as bait in pGBKT7, prey proteins in pGADT7AD.

These are yes or no findings as the source states them, for the method shown. Some binding calls cover weakened binding; strength is not graded here.

As for “MSMEG_6171, yeast two-hybrid fusion (pGBKT7:MSMEG_6171) (from UniProt A0R5F3 1-316)”, the binding result is “binds”.
